{"source": "patent US8450315B2", "about": "“Phosphoinositide 3-kinase inhibitor compounds and methods of use” (Genentech, Inc., priority 2006, dated 2013)", "origin": "cited, not measured here", "tested_on": "Class I PI3 kinases", "settings": "read-out: IC50 against each of the various Class I PI3 kinases; cited from earlier work", "note": "For at least one compound, name, drawing or mass did not settle the structure."}
{"smiles": "COC[C@H]1OC(=O)c2coc3c2[C@@]1(C)C1=C(C3=O)[C@@H]2CCC(=O)[C@@]2(C)C[C@H]1OC(C)=O", "note": "[wortmannin]", "values": [{"measurement": "IC50", "value": "1 to 10", "unit": "nM"}]}
